Reference: PMC8024975
These are yes or no findings as the source states them, for the method shown. For part of these data: Binding calls can cover weak binding; strength is not graded here.

Key:
Test in all cases: peptide or protein array; PepSpots membrane of 13-mer Has1 peptides overlapping by 10 residues, incubated with 2 μM purified ClpGGI N1 domain for 30 min at RT in buffer C (10 mM Tris pH 7.5, 150 mM KCl, 20 mM MgCl2, 5% sucrose, 0.005% Tween 20); bound N1 electrotransferred to PVDF and detected with N1-specific polyclonal antibodies; both purified
[1] = molecular target: T1, peptide 134 (S. cerevisiae)
T1 sequence (peptide): FLRYLKASKVPLN

[2] = molecular target: T2, peptide 2 (S. cerevisiae)
T2 sequence (peptide): SNKRSRDSESTEE

[3] = molecular target: T3, Peptide 92 (S. cerevisiae)
T3 sequence (peptide): KRFLLLFSFLKRN

N1–domain–ClpGGI (P. aeruginosa) (domain or fragment)
binding [1]: binds
binding [2]: no binding (tested: 2 μM)
binding [3]: binds
